Results deposited as PubChem BioAssay AID1259308 (NCATS, 2017).

- Test: 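Genes whose loss raises luciferase production in HEK293 cells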 (primary screen)
- System: human HEK293 embryonic kidney cells stably expressing firefly luciferase (HEK-CMV-Luc2-Hygro)
- Reagents: single siRNA against human genes, 0.8 pmol siRNA per well
- Time to read-out: 72 h
- Read-out: 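Reporter luminescence and viable-cell signal on separate replicate plates, given as percent of non-targeting control and median/MAD z-scores, plus per-cell luciferase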
- Scale: total luciferase, z-score and total luciferase, % of control: higher = more reporter protein produced; luciferase per cell, z-score: higher = more reporter output per viable cell; viable cells, % of control: higher = more viable cells
- Rule for the call: 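An siRNA counts as active if its total luciferase robust z-score exceeds 3; genes with two or more such siRNAs out of three were retested with fresh siRNAs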
- Meaning of the calls: active = raised luciferase; inactive = no rise
In all, the deposit lists about 59,000 reagents; shown is an unselected part. About 1,510 of them (2.6%) were called active. 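Calls use total luciferase alone and ignore viability, so some active siRNAs may act by altering cell number.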 The numbers tell different reagents against one gene apart.

| target | siRNA no. | total luciferase, z-score | total luciferase, % of control | luciferase per cell, z-score | viable cells, % of control | Call |
| --- | --- | --- | --- | --- | --- | --- |
| OR2J2 | 1 | 0.177 | 85.4 | -0.353 | 105 | inactive |
| OR2J2 | 2 | 0.71 | 96 | -0.0624 | 109 | inactive |
| OR2J2 | 3 | 1.1 | 104 | 0.815 | 93.6 | inactive |
| KRT71 | 1 | 3.01 | 142 | 2.61 | 79.7 | active |
| KRT71 | 2 | 2.76 | 137 | 2.02 | 89.8 | inactive |
| KRT71 | 3 | -0.0687 | 80.5 | -0.457 | 101 | inactive |
| NOVA2 | 1 | -0.234 | 77.2 | -0.404 | 96 | inactive |
| NOVA2 | 2 | -0.0928 | 80 | 0.268 | 83.3 | inactive |
| NOVA2 | 3 | -0.0565 | 80.8 | -0.432 | 101 | inactive |
| NEIL1 | 1 | -0.997 | 62.1 | -0.695 | 83.3 | inactive |
| NEIL1 | 2 | -0.633 | 69.3 | -1.07 | 103 | inactive |
| NEIL1 | 3 | 1.43 | 110 | 0.481 | 109 | inactive |
| BLCAP | 1 | 1.54 | 112 | 1.18 | 92.2 | inactive |
| BLCAP | 2 | -0.175 | 78.4 | 0.276 | 81.5 | inactive |
| BLCAP | 3 | 0.855 | 98.9 | 0.613 | 94.1 | inactive |
| SLC25A29 | 1 | 2.62 | 134 | 2.31 | 81.5 | inactive |
| SLC25A29 | 2 | -0.852 | 64.9 | -0.927 | 92.6 | inactive |
| SLC25A29 | 3 | -1.07 | 60.7 | -0.77 | 83 | inactive |
| RPS17P16 | 1 | -2.78 | 26.6 | -2.34 | 55.2 | inactive |
| RPS17P16 | 2 | 0.0615 | 83.1 | -0.922 | 118 | inactive |
| RPS17P16 | 3 | -2.71 | 28 | -2.48 | 60.1 | inactive |

Next part; the last 4 above are carried over.
| target | siRNA no. | total luciferase, z-score | total luciferase, % of control | luciferase per cell, z-score | viable cells, % of control | Call |
| --- | --- | --- | --- | --- | --- | --- |
| SLC25A29 | 3 | -1.07 | 60.7 | -0.77 | 83 | inactive |
| RPS17P16 | 1 | -2.78 | 26.6 | -2.34 | 55.2 | inactive |
| RPS17P16 | 2 | 0.0615 | 83.1 | -0.922 | 118 | inactive |
| RPS17P16 | 3 | -2.71 | 28 | -2.48 | 60.1 | inactive |
| POLQ | 1 | 0.0926 | 83.7 | 0.272 | 87.1 | inactive |
| POLQ | 2 | 0.301 | 87.9 | 0.184 | 93.5 | inactive |
| POLQ | 3 | -0.411 | 73.7 | -0.622 | 97 | inactive |
| LRR1 | 1 | -0.122 | 79.5 | -0.498 | 101 | inactive |
| LRR1 | 2 | -0.424 | 73.5 | -0.56 | 95.1 | inactive |
| LRR1 | 3 | -0.422 | 73.5 | 0.0728 | 80.6 | inactive |
| CDX1 | 1 | 0.127 | 84.4 | 0.39 | 85.1 | inactive |
| CDX1 | 2 | 0.445 | 90.7 | 0.288 | 94 | inactive |
| CDX1 | 3 | 1.54 | 113 | 2.14 | 71.5 | inactive |
| PLAGL1 | 1 | 1.01 | 102 | 1.26 | 81.8 | inactive |
| PLAGL1 | 2 | 3.12 | 144 | 2.69 | 79.2 | active |
| PLAGL1 | 3 | 0.0336 | 82.6 | -0.233 | 98.1 | inactive |
| ABCA7 | 1 | -0.0645 | 80.6 | 0.847 | 72.1 | inactive |
| ABCA7 | 2 | 0.287 | 87.6 | 0.658 | 82.3 | inactive |
| ABCA7 | 3 | 2.55 | 133 | 1.7 | 94.6 | inactive |
| TMPRSS5 | 1 | 0.855 | 98.9 | 0.46 | 97.9 | inactive |
| TMPRSS5 | 2 | 0.476 | 91.3 | 0.152 | 98.1 | inactive |
| TMPRSS5 | 3 | -0.499 | 72 | -0.197 | 84.7 | inactive |
